Among the data in patent US20080199939A1 are binding values, retold here.

Amino acid sequences for entries named in this document (tags omitted). Residues count along the entry.
UniProt P78310, residues 20-365: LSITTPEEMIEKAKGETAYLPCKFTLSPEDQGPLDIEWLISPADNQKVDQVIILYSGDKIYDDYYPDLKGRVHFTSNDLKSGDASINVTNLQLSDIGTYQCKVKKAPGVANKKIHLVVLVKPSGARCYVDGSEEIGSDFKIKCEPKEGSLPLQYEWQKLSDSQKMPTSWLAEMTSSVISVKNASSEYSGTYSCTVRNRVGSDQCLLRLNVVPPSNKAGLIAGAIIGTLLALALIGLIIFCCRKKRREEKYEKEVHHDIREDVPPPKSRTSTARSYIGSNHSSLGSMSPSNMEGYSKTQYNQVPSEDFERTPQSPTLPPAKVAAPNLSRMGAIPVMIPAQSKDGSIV

These are yes or no findings as the source states them, for the method shown. Some entries that bind do so weakly or less than the wild type.

The target of the assay is Coxsackievirus and Adenovirus Receptor (CAR) (UniProt P78310). The assay can be described thus: receptor recognition through the fiber knob; method not described, data not shown.

B1: Ad5 fiber protein, on the original Ad5 based vector (protein)
chain: MKRARPSEDTFNPVYPYDTETGPPTVPFLTPPFVSPNGFQESPPGVLSLRLSEPLVTSNGMLALKMGNGLSLDEAGNLTSQNVTTVSPPLKKTKSNINLEISAPLTVTSEALTVAAAAPLMVAGNTLTMQSQAPLTVHDSKLSIATQGPLTVSEGKLALQTSGPLTTTDSSTLTITASPPLTTATGSLGIDLKEPIYTQNGKLGLKYGAPLHVTDDLNTLTVATGPGVTINNTSLQTKVTGALGFDSQGNMQLNVAGGLRIDSQNRRLILDVSYPFDAQNQLNLRLGQGPLFINSAHNLDINYNKGLYLFTASNNSKKLEVNLSTAKGLMFDATAIAINAGDGLEFGSPNAPNTNPLKTKIGHGLEFDSNKAMVPKLGTGLSFDSTGAITVGNKNNDKLTLWTTPAPSPNCRLNAEKDAKLTLVLTKCGSQILATVSVLAVKGSLAPISGTVQSAHLIIRFDENGVLLNNSFLDPEYWNFRNGDLTEGTAYTNAVGFMPNLSAYPKSHGKTAKSNIVSQVYLNGDKTKPVTLTITLNGTQETGDTTPSAYSMSFSWDWSGHNYINEIFATSSYTFSYIAQE
For the molecule B1, the binding entry is on record as “binds”.
